Results are given in words; binding and its absence hold for the method and conditions named. Binding seen in cells or lysates may run through a third protein. Some results given as binding are weak or reduced against the parent protein; the word gives no strength.
Biological target: EZH2, a core subunit of the polycomb repressive complex 2 (PRC2) (human (endogenous in Panc-1)) (UniProt Q15910)
Assay: co-IP; endogenous co-immunoprecipitation from Panc1 nuclear extract; anti-PHF13 IP or anti-EZH2 IP, anti-IgG IP as control; western blot

The chains behind the UniProt entries cited, without tags or fusion partners.
UniProt Q15910: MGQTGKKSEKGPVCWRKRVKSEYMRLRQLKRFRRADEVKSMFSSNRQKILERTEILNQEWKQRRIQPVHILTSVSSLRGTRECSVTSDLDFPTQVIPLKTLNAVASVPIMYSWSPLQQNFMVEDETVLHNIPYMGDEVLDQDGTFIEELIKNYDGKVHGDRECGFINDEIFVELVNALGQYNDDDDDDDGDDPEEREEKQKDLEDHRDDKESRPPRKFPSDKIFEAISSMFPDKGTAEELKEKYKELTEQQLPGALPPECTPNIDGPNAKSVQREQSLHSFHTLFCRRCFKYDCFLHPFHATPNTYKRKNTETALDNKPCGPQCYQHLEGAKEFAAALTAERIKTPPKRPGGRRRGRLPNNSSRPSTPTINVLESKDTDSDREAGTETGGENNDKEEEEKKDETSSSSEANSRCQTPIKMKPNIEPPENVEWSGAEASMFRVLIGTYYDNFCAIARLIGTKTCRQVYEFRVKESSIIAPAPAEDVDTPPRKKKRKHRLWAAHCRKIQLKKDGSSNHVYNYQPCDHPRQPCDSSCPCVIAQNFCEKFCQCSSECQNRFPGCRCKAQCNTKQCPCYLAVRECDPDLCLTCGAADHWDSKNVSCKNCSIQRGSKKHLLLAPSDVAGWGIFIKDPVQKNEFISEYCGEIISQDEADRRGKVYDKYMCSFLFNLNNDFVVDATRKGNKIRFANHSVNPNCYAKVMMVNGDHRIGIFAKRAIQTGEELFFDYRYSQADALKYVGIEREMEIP
UniProt Q86YI8: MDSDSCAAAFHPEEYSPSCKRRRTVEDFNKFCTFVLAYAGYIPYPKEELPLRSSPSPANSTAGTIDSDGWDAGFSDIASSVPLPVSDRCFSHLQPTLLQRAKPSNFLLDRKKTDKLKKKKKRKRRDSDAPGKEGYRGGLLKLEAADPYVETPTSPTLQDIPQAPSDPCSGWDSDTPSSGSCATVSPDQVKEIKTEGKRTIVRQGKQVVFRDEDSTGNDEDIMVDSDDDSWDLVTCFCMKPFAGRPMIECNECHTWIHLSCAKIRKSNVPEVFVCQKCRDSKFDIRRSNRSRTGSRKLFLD

PHD finger protein 13 (PHF13) (from UniProt Q86YI8 1-300)
binding: binds

From publication PMC9124206
